Hit rate of the full screen: of about 300,000 compounds, about 3,700 (1.2%) were called active. Inconclusive means that the source gave no clear call. Such entries were picked first, then a sample of the others. Calls come from the whole dose curve; tested in HEK293 cells. Potencies beside an inconclusive call are fits to weak or partial responses and may not hold up.
test: qHTS for Inhibitors of binding or entry into cells for Lassa Virus; conditions: Lassa virus pseudotype entry inhibition, cell reporter; activity change, negative = inhibition: at 37.9 µM (top of the series) unless noted; note: nearly all actives have a fitted effect of over 50% in size
% is set by controls: 0 for no effect and ±100 for the full control effect; potency is the fitted concentration of half-maximal effect.

Structure (SMILES) | Potency | activity change, negative = inhibition
COc1cc(Cl)c(C)cc1NC(=O)CSc1cc(=O)n(C)c2cc(Cl)ccc12 | inactive | 
Cc1cccc(C)c1Nc1c(-c2ccsc2)nc2ncccn12 | inconclusive: 0.231 µM [inhibitor, full curve, poor fit] | 
O=C1Nc2cc(Cl)c(Cl)cc2N(O)N1c1ccccc1 | inactive | 
O=C(Nc1nc(-c2cccc([N+](=O)[O-])c2)cs1)C(c1ccccc1)c1ccccc1 | inconclusive: 11.2 µM [inhibitor, partial curve] | 
COc1cc(C(=O)Nc2sc3c(c2C(=O)O)CCC3)cc(OC)c1OC | inconclusive: 22.4 µM [inhibitor, partial curve, poor fit] | 
C#CCn1c(O)c(N=NC(=O)CNC(=O)/C=C/c2ccccc2)c2ccccc21 | inconclusive: 35.5 µM [inhibitor, single point] | 
Cn1c(C(=O)OCC(=O)NCc2ccco2)cc2sccc21 | inconclusive: 11.6 µM [inhibitor, partial curve, poor fit] | 
Cc1ccc(OC(C)C(=O)N(Cc2cccs2)C2CCS(=O)(=O)C2)cc1C (stereo not given) | inconclusive: 3.55 µM [inhibitor, partial curve, poor fit] | 
COc1ccc(CCNC(=O)C2CC(=O)N(c3ccc(C)cc3)C2)cc1OC (stereo not given) | inactive | 
CN(C)c1ccc(C(CNC(=O)COc2ccccc2)N2CCOCC2)cc1 (stereo not given) | inactive | 
N#C/C(=C/c1ccc(N2CCCCC2)cc1)c1cccc(F)c1 | inconclusive: 1.26 µM [activator, single point] | 
CC(=O)CSc1nc(-c2ccccc2)[nH]c1S(=O)(=O)c1ccc(C)cc1 | inconclusive: 5.01 µM [inhibitor, partial curve, poor fit] | 
CCc1nnc2n1N=C(c1ccc(OC)cc1)CS2 | inconclusive: 7.3 µM [inhibitor, partial curve, poor fit] | 
O=C(/C=C/c1ccc([N+](=O)[O-])cc1)NNC(=O)C1CC1 | inactive | 
COc1cccc2sc(N3CCN(C(=O)c4ccc([N+](=O)[O-])o4)CC3)nc12 | inconclusive: 35.5 µM [inhibitor, single point] | 
CCOC(=O)C1(Cc2ccccc2C(F)(F)F)CCN(CC(O)CO)CC1 (stereo not given) | inactive | 
COC(=O)c1ccc(Cn2c(=O)cc(C)c3c(C)nn(C)c32)cc1 | inactive | 
CCN(CC)c1ccc(/C=C/[N+](=O)[O-])cc1 | inconclusive: 15.8 µM [inhibitor, partial curve, poor fit] | 
CCc1ccc(CNC(=O)c2nn(-c3ccc(C)c(C)c3)nc2CO)cc1 | inconclusive: 3.98 µM [inhibitor, full curve] | 
CC(C)c1ccc(C(=O)N2CCCN(C(=O)c3ccc(C(C)C)cc3)CC2)cc1 | inconclusive: 2.06 µM [inhibitor, full curve, poor fit] | 
Cc1ccc2c(CNCc3cccs3)c(C(=O)O)n(Cc3ccc(F)cc3)c2c1 | inconclusive: 35.5 µM [inhibitor, single point] | 
O=C(NC1CCCC1)c1cc2c(ccc3ccccc32)o1 | inconclusive: 35.5 µM [inhibitor, single point] | 
Cc1nc(C#N)c(N/N=C/c2cccc(Cl)c2)o1 | inconclusive: 18.4 µM [activator, single point] | 
Cc1ccccc1CNC(=O)C(=O)NCC(c1ccco1)S(=O)(=O)c1ccc(F)cc1 (stereo not given) | inconclusive: 12.6 µM [inhibitor, partial curve, poor fit] | 

Some values from the list:
Potency with `COc1cccc2sc(N3CCN(C(=O)c4ccc([N+](=O)[O-])o4)CC3)nc12` reads inconclusive: 35.5 µM [inhibitor, single point]
Potency with `CCc1nnc2n1N=C(c1ccc(OC)cc1)CS2` reads inconclusive: 7.3 µM [inhibitor, partial curve, poor fit]
Potency with `O=C1Nc2cc(Cl)c(Cl)cc2N(O)N1c1ccccc1` reads inactive

Remaining list, next part.

Structure (SMILES) | Potency | activity change, negative = inhibition
CC1CN(c2oc(COc3ccc(Cl)cc3Cl)nc2C#N)CC(C)O1 (stereo not given) | inconclusive: 11.2 µM [inhibitor, partial curve] | 
O=C(Cn1cnc2c(nnn2Cc2ccc(F)cc2)c1=O)NCc1ccc(F)cc1 | inconclusive: 3.55 µM [inhibitor, partial curve, poor fit] | 
CCNc1nc(N)c(C(=C(C#N)C#N)c2ccccc2)s1 | inconclusive: 1 µM [activator, single point] | 
O=[N+]([O-])c1ccc(COc2cccnc2)cc1 |  | inconclusive: 16.4% [activator]
CCOc1cc(-c2nc(-c3ccccc3)c(-c3cc([N+](=O)[O-])ccc3C)[nH]2)ccc1O | inactive | 
CCNC(=S)N/N=C/c1cn(Cc2ccc(F)cc2)c2ccccc12 | inconclusive: 29.1 µM [inhibitor, single point] | 
COc1ccc(NS(=O)(=O)c2ccc3c(c2)CCN3C(=O)C2CC2)cc1OC | inconclusive: 1.12 µM [inhibitor, full curve, poor fit] | 
Cc1cccc(CN2CCc3c(OCC(=O)N4CCCc5ccccc54)cccc3C2=O)c1 | active: 4.47 µM | 
O=C(O)C1C2C=CC(O2)C1C(=O)Nc1ccccc1C(F)(F)F (stereo not given) | inactive | 
COc1ccc(CNC(=O)CCSCc2ccc(C)cc2)cc1 | inconclusive: 35.5 µM [inhibitor, single point] | 
O=C(NCCCN1CCOCC1)c1ccc(S(=O)(=O)N2CCOCC2)cc1 | inactive | 
CC1CC(OP(O)(=S)c2ccc(N(C)C)cc2NC(=O)c2cccs2)CC(C)(C)C1 (stereo not given) | inactive | 
O=C(c1ccc2c(=O)n(C3CCCC3)c(=S)[nH]c2c1)N1CCN(C2CCCCC2)CC1 | inactive | 
COc1ccc(NC(=O)c2cccc(N3CCCS3(=O)=O)c2)cc1 | inconclusive: 3.55 µM [activator, full curve, poor fit] | 
CC(C)(C)OC(=O)N1CCCC(C(=O)Nc2cccc(C(=O)N3CCCC3)c2)C1 (stereo not given) | inconclusive: 8.87 µM [activator, partial curve, poor fit] | 
Cc1ccc(-c2noc(CCC(=O)Nc3ccc(F)cc3Cl)n2)cc1 | inactive | 
CC(C)c1ccc(/C=N/NC(=O)c2c(Cl)cnn2C)cc1 | inconclusive: 29.1 µM [inhibitor, single point] | 
COc1ccc(/C=C/C(O)=C2/C(=O)N(C)C3(C)CC2c2ccccc2O3)cc1 (stereo not given) | inconclusive: 29.1 µM [inhibitor, single point] | 
O=C(O)CCn1cc(C=C2C(=O)NC(=S)NC2=O)c(-c2cc3ccccc3oc2=O)n1 | inactive | 
Cc1cc(C)n2c(nc3ccccc32)c1C(=O)NN | inactive | 
Clc1cccc(-c2cc3nc4c(c(NCc5ccco5)n3n2)CCCC4)c1 | inactive | 
COc1ccc(S(=O)(=O)N2CCOCC2)cc1NC(=O)CCCOc1ccccc1 | inactive | 
Cn1ncc(C(=O)N2CCN(c3ccccc3)CC2)c1C1CCN(C(=O)OC(C)(C)C)CC1 | inconclusive: 0.891 µM [inhibitor, full curve, poor fit] | 
O=C1C2C3C=CC(C4CC34)C2C(=O)N1CCc1ccccc1 (stereo not given) | inconclusive: 0.651 µM [activator, single point] | 

Given comma-delimited: part of the list above.
Structure (SMILES),Potency,"activity change, negative = inhibition"
CC1CN(c2oc(COc3ccc(Cl)cc3Cl)nc2C#N)CC(C)O1 (stereo not given),"inconclusive: 11.2 µM [inhibitor, partial curve]",
O=C(Cn1cnc2c(nnn2Cc2ccc(F)cc2)c1=O)NCc1ccc(F)cc1,"inconclusive: 3.55 µM [inhibitor, partial curve, poor fit]",

Additional structures follow:

Structure (SMILES) | Potency | activity change, negative = inhibition
CCOC(=O)c1[nH]c2ccc(OCC)cc2c1NC(=O)CN1CCCC(C)C1 (stereo not given) | inconclusive: 20 µM [inhibitor, partial curve, poor fit] | 
Cc1cc(C)cc(N2C(=O)CS(=O)(=O)C23C(=O)N(Cc2ccc(F)cc2)c2ccc(C)cc23)c1 (stereo not given) | inconclusive: 22.4 µM [activator, partial curve, poor fit] | 
Cc1cc(C)c(S(=O)(=O)Nc2ccc(Cl)cn2)c(C)c1 | inactive | 
CCc1ccc(OCC(=O)NNC(=S)NC(=O)C2CC2)c(Br)c1 | inconclusive: 2.82 µM [inhibitor, partial curve, poor fit] | 
Cc1ccc(C)n1C(CC(=O)O)c1ccc(C#N)cc1 (stereo not given) | inactive | 
COc1cc(OC)c(OC)cc1CN1CCN(Cc2ccc(SC)cc2)CC1 | inconclusive: 20.6 µM [inhibitor, partial curve, poor fit] | 
Cc1cc(F)ccc1NC(=O)C1CCCN(c2nnc(-n3c(C)ccc3C)s2)C1 (stereo not given) |  | inconclusive: 0.637% [activator] [at 46.1 µM]
O=C(COc1ccc(Br)cc1)N1CCc2ccccc2C1 | inactive | 
Cc1ccc(SCC(=O)Nc2ccccc2C(=O)N2CCOCC2)cc1 | inactive | 
COc1cccc2cc(-c3nnc(Nc4ccccc4C)s3)c(=O)oc12 | inactive | 
O=C1NC(c2ccccc2)CCC1(Cl)Cl (stereo not given) | inconclusive: 3.16 µM [activator, single point] | 
COc1ccc(CN(C)Cc2cc(=O)oc3cc(C)c(C(C)C)cc23)cc1OC | inconclusive: 11.2 µM [inhibitor, partial curve, poor fit] | 
CCOC(=O)c1nc(-c2ccccc2)sc1C(C)=O | inactive | 
COc1ccc(Nc2nc(-c3cc4cccc(OC)c4oc3=O)cs2)cc1 | inconclusive: 0.398 µM [inhibitor, partial curve, poor fit] | 
COc1ccc(CN(C)C(=O)/C=C/c2ccc(S(=O)(=O)N3CCOCC3)cc2)cc1F | inconclusive: 35.5 µM [inhibitor, single point] | 
Cc1c(NC(=O)CCCOc2ccccc2)cccc1[N+](=O)[O-] | inconclusive: 1.26 µM [inhibitor, partial curve, poor fit] | 
O=C(Nc1cccc(C(F)(F)F)c1)NC1CCCCC1 | active: 3.98 µM | 
O=C(/C=C\c1ccco1)Nc1nc(-c2ccccc2)cs1 | inconclusive: 2.06 µM [activator, full curve, poor fit] | 
COc1ccc(NC(=O)C2CCN(S(=O)(=O)c3ccc(N4CCCC4=O)cc3)CC2)c(OC)c1 | inactive | 
O=C(C(Sc1ccccc1)c1ccccc1)N1CCN(c2ccccc2)CC1 (stereo not given) | inconclusive: 25.9 µM [inhibitor, partial curve] | 
Cc1cccc(NC(=O)CSc2nnc(-c3cccs3)o2)c1 | inactive | 
O=C(O)CCCN1C(=O)/C(=C/c2ccncc2)SC1=S | inconclusive: 35.5 µM [inhibitor, single point] | 

From PubChem BioAssay AID540256 (National Center for Advancing Translational Sciences (NCATS), 2011)
